# Source: PubChem BioAssay AID720504 (National Center for Advancing Translational Sciences (NCATS), 2013)
# The chains behind the UniProt entries cited, without tags or fusion partners.
# UniProt P53350, whole entry, looked up: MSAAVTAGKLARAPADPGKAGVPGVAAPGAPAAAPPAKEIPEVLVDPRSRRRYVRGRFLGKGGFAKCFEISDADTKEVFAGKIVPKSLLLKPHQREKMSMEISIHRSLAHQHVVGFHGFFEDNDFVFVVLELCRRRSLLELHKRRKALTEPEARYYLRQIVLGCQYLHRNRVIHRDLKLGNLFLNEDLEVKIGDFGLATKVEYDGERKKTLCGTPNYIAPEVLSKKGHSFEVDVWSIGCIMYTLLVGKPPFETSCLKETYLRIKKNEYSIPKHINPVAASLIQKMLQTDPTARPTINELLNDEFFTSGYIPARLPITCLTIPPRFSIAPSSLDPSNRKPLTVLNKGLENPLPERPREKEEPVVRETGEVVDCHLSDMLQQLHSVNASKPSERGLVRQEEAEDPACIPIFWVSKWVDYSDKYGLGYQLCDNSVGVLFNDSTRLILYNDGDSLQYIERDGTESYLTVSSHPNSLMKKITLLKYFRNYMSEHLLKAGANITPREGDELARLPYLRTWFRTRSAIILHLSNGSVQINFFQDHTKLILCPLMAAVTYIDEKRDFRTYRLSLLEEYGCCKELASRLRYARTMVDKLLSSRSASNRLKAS
# Among all 360,000 compounds or so, about 10,000 (2.8%) were called active. The inconclusive results got no clear call from the source; some entries with a clear call stand among them for comparison. Calls come from the whole dose curve; as a rule, active = well fitted inhibition curve with a large enough effect; inconclusive = small, poorly fitted or top-dose-only effect; inactive = flat fitted curve, though single readings scatter. Potencies of inconclusive entries are doubtful fits and often do not repeat.
# Biological target: Serine/threonine-protein kinase PLK1 (Homo sapiens) (UniProt P53350)
# Test: qHTS for Inhibitors of PLK1-PDB (polo-like kinase 1 - polo-box domain): Primary Screen; note: nearly all actives have a fitted effect of over 65% in size; for max response, negative = inhibition: series mostly up to about 57 µM
# Settings: Plk1 PBD binding of FITC phosphopeptide, fluorescence polarization
# % is set by controls: 0 for no effect and ±100 for the full control effect; potency is the fitted concentration of half-maximal effect.
Structure (SMILES),Potency,"max response, negative = inhibition"
COc1ccc2cc(C3CC(c4cccs4)=NN3S(C)(=O)=O)c(Cl)nc2c1 (configuration not stated),active: 6.7 µM,–
COc1cc(N2Cc3ccccc3C2)ccc1C=O,–,inconclusive: -34% [inhibitor]
Nc1ccccc1Sc1ccc(C(=O)c2ccccc2C(=O)O)cc1[N+](=O)[O-],"inconclusive: 29.9 µM [inhibitor, partial curve]",–
CCN(c1ccc(OC)cc1)S(=O)(=O)c1csc(C(=O)N2CCCC2)c1,–,inactive: -18%
CC(C)Nc1nc(NC(C)C)nc(Oc2ccc(=O)n(C)n2)n1,"inconclusive: 21.2 µM [inhibitor, single point]",–
CC(=O)NNc1nc(-c2ccc(NC(C)=O)cc2)cs1,–,inconclusive: -34.3% [inhibitor]
CC(C)CNC1=CC(=O)CC(c2ccco2)C1 (configuration not stated),–,inactive: -22.1%
CCN1C(=O)[C@H]2[C@@H](c3ccc(C)cc3)N3C(=O)N(c4cccc(F)c4)C(=O)[C@@]3(CC)[C@H]2C1=O,"inconclusive: 21.2 µM [inhibitor, single point]",–
Nc1cccc(-c2csc(-n3ncc(C(=O)O)c3C(F)(F)F)n2)c1,–,inactive: -6.43%
CC(C)Nc1nc(-c2ccncc2)nc(-c2ccc(Cl)cc2)c1C#N,"inconclusive: 29.9 µM [inhibitor, single point]",–
Cc1cc([N+](=O)[O-])nn1CCCC(=O)Nc1sc2c(c1C(N)=O)CCCC2,active: 4.74 µM,–
Cc1cc(C)n(CC(=O)Nc2ccccc2)n1,active: 21.2 µM,–
O=C(c1sc2cc([N+](=O)[O-])ccc2c1Cl)N1CCOCC1,"inconclusive: 5.97 µM [inhibitor, single point]",–
O=C(CSc1nc(-c2ccccc2)cs1)NCCCN1CCCC1=O,–,inactive: -3.78%
CC(=O)N(C)C1=C(O)c2ccccc2C(=O)C1=O,–,inactive: -1.7%
CC(=O)Nc1ccc(N2C(=O)c3cccc4c(O)ccc(c34)C2=O)cc1,active: 4.74 µM,–
CC1CCCN(c2nc(-c3cccnc3)nc3scc(-c4ccccc4)c23)C1 (configuration not stated),–,inactive: 19%
CN(C)Cc1cn(CC[C@@H]2CC[C@@H](NC(=O)Nc3ccccc3F)[C@@H](CO)O2)nn1,–,inactive: -3.8%
FC(F)(F)c1ccc(/C=N/n2c(C3CCCCC3)n[nH]c2=S)cc1,"inconclusive: 26.7 µM [inhibitor, single point]",–
Cc1nc(-c2ccccc2O)n(S(=O)(=O)N(C)C)n1,"inconclusive: 26.7 µM [inhibitor, partial curve]",–
O=C(C[C@@H]1C=C[C@H](NS(=O)(=O)c2ccccc2F)[C@@H](CO)O1)NCCCN1CCOCC1,–,inactive: 1.67%
COc1ccc(C2CC(c3ccccc3Cl)Nc3ncnn32)cc1OC (configuration not stated),"inconclusive: 26.7 µM [inhibitor, single point]",–
Clc1ccccc1-c1nnc2sc(C3COc4ccccc4O3)nn12 (configuration not stated),"inconclusive: 26.7 µM [inhibitor, partial curve]",–
CCCCC(=O)NC(c1ccc(N(C)C)cc1)c1ccc2cccnc2c1O (configuration not stated),active: 26.7 µM,–

Structure (SMILES),Potency,"max response, negative = inhibition"
Cc1cccc(N2CC(C(=O)Nc3nnc(SCc4ccccn4)s3)CC2=O)c1 (configuration not stated),"inconclusive: 23.8 µM [inhibitor, single point]",–
COC(=O)c1nc(NC2=NCCCCC2)n[nH]1,"inconclusive: 26.7 µM [inhibitor, single point]",–
CCCCN(C(=O)COC(=O)CSc1ccc([N+](=O)[O-])cc1)c1c(N)n(CCC)c(=O)[nH]c1=O,"inconclusive: 18.9 µM [inhibitor, partial curve]",–
CCOc1ccc(NC(=O)CN(C)C(=O)c2ccc(OCc3ccccc3)c(OC)c2)cc1OCC,–,inactive: -10.8%
CC(C)c1ccc(NC(=O)/C(C#N)=C/c2ccncc2)cc1,"inconclusive: 5.97 µM [inhibitor, partial curve]",–
CCOc1ccc(NC(=O)C(=O)NCc2ccncc2)cc1,"inconclusive: 21.2 µM [inhibitor, single point]",–
Cc1nc2c(nnn2Cc2ccccc2)c(=O)[nH]1,active: 4.74 µM,–
CCC1Sc2ccc(S(=O)(=O)CCC(=O)NCc3cccs3)cc2NC1=O (configuration not stated),–,inconclusive: -30.9% [inhibitor]
CCOC(=O)C(=O)Nc1nnc(Cc2ccc(OC)c(OC)c2)s1,"inconclusive: 21.2 µM [inhibitor, single point]",–
CCCCn1c(=O)[nH]c(=O)c2c1nc(-c1ccc(C#N)cc1)n2C1CCCC1,"inconclusive: 23.8 µM [inhibitor, single point]",–
COc1cccc(CN2CCCN(S(=O)(=O)c3ccc(Br)cc3)CC2)c1,–,inactive: -19.6%
COC(=O)c1ccc(-n2cncn2)c([N+](=O)[O-])c1,active: 26.7 µM,–
CC(=O)Nc1ccc(S(=O)(=O)NNC(=O)COc2cc(C)ccc2C(C)C)cc1,"inconclusive: 21.2 µM [inhibitor, single point]",–
CCOC(=O)N/N=C/C=C/c1ccccc1[N+](=O)[O-],active: 21.2 µM,–
Cc1cc(C)c(NC(=O)COC(=O)c2ccc([N+](=O)[O-])s2)c(C)c1,–,inactive: -8.65%
O=C(CCc1ccccc1)OCC(=O)c1ccc(Br)cc1,"inconclusive: 37.7 µM [inhibitor, single point]",–
O=C(O)/C(=C\c1ccc(Cl)c([N+](=O)[O-])c1)c1ccc(S(=O)(=O)N2CCCCC2)s1,"inconclusive: 29.9 µM [inhibitor, partial curve]",–
CC(C)(C)OC(=O)CC(S(=O)(=O)c1ccccc1)S(=O)(=O)c1ccccc1,"inconclusive: 23.8 µM [inhibitor, single point]",–
CC1(C)C(/C=C/C=C/C=C/C=C2\N(CCCCS(=O)(=O)O)c3ccc4ccccc4c3C2(C)C)=[N+](CCCCS(=O)(=O)[O-])c2ccc3ccccc3c21,"inconclusive: 5.97 µM [inhibitor, partial curve]",–
Cc1nn(CC(=O)NC2C(=O)N3C(C(=O)O)=C(CSc4nnnn4C)CSC23)cc1Br (configuration not stated),–,inactive: -10.6%
Nc1nc2ccc(Cc3ccncc3)cc2s1,"inconclusive: 23.8 µM [inhibitor, partial curve]",–
O=C(O)c1ccccc1-c1ccccc1C(=O)Nc1ccc2c(c1)C(=O)c1ccccc1-2,–,inconclusive: -30.7% [inhibitor]
CCCOc1ccc(-c2cnc(N)s2)cc1,–,inconclusive: -30% [inhibitor]
CCSC1(SCC)N=C(N)C2(C#N)C(c3ccc(F)cc3)C12C#N (configuration not stated),active: 9.47 µM,–

Structure (SMILES),Potency,"max response, negative = inhibition"
CCOc1ccc(NC(=O)c2ccc(N)cc2)cc1,–,inactive: -4.94%
Cc1nnc(C)n1/N=C/c1c(O)ccc2ccccc12,"inconclusive: 23.8 µM [inhibitor, partial curve]",–
O=C(CCC1CCCCC1)NCCN1C2=NC[C@H](Cc3ccc(O)cc3)N2C[C@H]1Cc1ccc(O)cc1,"inconclusive: 29.9 µM [inhibitor, single point]",–
COc1cccc(Oc2cn[nH]c2-c2ccc(OCC(=O)NN)cc2O)c1,active: 37.7 µM,–
Cc1ccc(C(O)(COC(=O)C(C)C)COC(=O)C(C)C)c(O)c1,–,inactive: -9.67%
Cc1cc(O)c(C(=O)Nc2cccc(Cl)c2)c(=O)n1C,–,inactive: -16.2%
CCCCNC(=O)N1CCN(c2ncccn2)CC1,"inconclusive: 26.7 µM [inhibitor, partial curve]",–
Cc1cc(C)n2nc(SCC(=O)NC3CCCCC3)nc2n1,"inconclusive: 18.9 µM [inhibitor, single point]",–
CCCc1nn2c(=O)cc(CSCC(=O)Nc3ccc(C)cc3)nc2s1,–,inactive: -8.6%
CCOC(=O)C1=CCN(S(=O)(=O)c2ccc(F)cc2)C1c1cccc(Cl)c1 (configuration not stated),–,inconclusive: -30.6% [inhibitor]
CC(=O)Nc1cccc(NC(=O)C2C3C=CC(C3)C2C(=O)O)c1 (configuration not stated),–,inactive: 4.57%
O=C(O)c1ccc2nc(-c3ccco3)c(-c3ccco3)nc2c1,active: 11.9 µM,–
Oc1c(Br)cc(/C=N/n2c(-c3ccccc3)n[nH]c2=S)cc1Br,"inconclusive: 37.7 µM [inhibitor, single point]",–
Cc1occc1-c1nnc(SCC(=O)Nc2nccs2)n1CCc1ccccc1,"inconclusive: 33.6 µM [inhibitor, single point]",–
Cc1nc2ccccn2c1C(=O)Nc1ccc(Cl)cc1,"inconclusive: 15 µM [inhibitor, partial curve]",–
Clc1ccccc1OCc1nnc(-c2ccccc2)o1,"inconclusive: 23.8 µM [inhibitor, single point]",–
COC(=O)C1=C(C)Nc2[nH]c(=S)[nH]c(=O)c2C1c1ccc(OC)cc1 (configuration not stated),"inconclusive: 21.2 µM [inhibitor, partial curve]",–
COc1ccc(/C=C/C(=O)c2ccc(O)cc2)cc1CN1CCOCC1,–,inactive: -17.2%
CCCN(CC1CC1)c1nc(N)c2c(N)nc(OC)cc2c1C#N,"inconclusive: 29.9 µM [inhibitor, single point]",–
CC(=O)N1N=C(c2cccc(NS(=O)(=O)c3ccc(C)cc3)c2)CC1c1ccco1 (configuration not stated),–,inactive: -4.02%
O=C(COC(=O)Cc1n[nH]c(=O)c2ccccc12)NNC(=O)c1ccc(Cl)cc1,–,inactive: -3.27%
Cc1cc(C)c(S(=O)(=O)Oc2ccccc2[N+](=O)[O-])c(C)c1,–,inactive: 2.05%
COc1ccc([C@H]2C[C@H](n3cc(COC(=O)c4ccccc4)nn3)[C@@H](O)CN2CC2CCCCC2)cc1,–,inactive: 3.06%
CCOC(=O)c1cc(CC)sc1/N=C/C1=C(O)CC(C)(C)CC1=O,–,inactive: 3.41%

# Full records, looked up by structure.
# `Cc1cc(C)n2nc(SCC(=O)NC3CCCCC3)nc2n1` as listed: Potency: inconclusive: 18.9 µM [inhibitor, single point]
# `CCOC(=O)C1=CCN(S(=O)(=O)c2ccc(F)cc2)C1c1cccc(Cl)c1` (configuration not stated) as listed: max response, negative = inhibition: inconclusive: -30.6% [inhibitor]
# `Cc1cc(O)c(C(=O)Nc2cccc(Cl)c2)c(=O)n1C` as listed: max response, negative = inhibition: inactive: -16.2%
